For assay [1], the target named is T1, WT mouse syndecan-4 (mSDC4) with a C-terminal Flag tag (mouse) (UniProt O35988).
T1 sequence: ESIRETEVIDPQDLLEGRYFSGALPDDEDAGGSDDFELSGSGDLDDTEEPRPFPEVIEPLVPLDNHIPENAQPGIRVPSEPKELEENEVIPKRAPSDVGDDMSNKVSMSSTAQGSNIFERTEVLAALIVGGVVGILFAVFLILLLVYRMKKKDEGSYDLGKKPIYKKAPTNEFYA
Description: proximity ligation; HEK293T cells co-transfected with HA-tagged human PTPRS (WT or mutant) and Flag-tagged mouse SDC4 or Flag-tagged mouse PTPRS; fixed, permeabilised; anti-HA and anti-Flag primary antibodies, Duolink.

The chains behind the UniProt entries cited, without tags or fusion partners. Where a name states a change or a piece, a line headed by the entry shows the natural chain unless it says otherwise. A line that says so, or that is headed by a name, gives the form on record, which may keep a tag or linker. Residues count along the entry.
UniProt B0V2N1, residues 30-1907: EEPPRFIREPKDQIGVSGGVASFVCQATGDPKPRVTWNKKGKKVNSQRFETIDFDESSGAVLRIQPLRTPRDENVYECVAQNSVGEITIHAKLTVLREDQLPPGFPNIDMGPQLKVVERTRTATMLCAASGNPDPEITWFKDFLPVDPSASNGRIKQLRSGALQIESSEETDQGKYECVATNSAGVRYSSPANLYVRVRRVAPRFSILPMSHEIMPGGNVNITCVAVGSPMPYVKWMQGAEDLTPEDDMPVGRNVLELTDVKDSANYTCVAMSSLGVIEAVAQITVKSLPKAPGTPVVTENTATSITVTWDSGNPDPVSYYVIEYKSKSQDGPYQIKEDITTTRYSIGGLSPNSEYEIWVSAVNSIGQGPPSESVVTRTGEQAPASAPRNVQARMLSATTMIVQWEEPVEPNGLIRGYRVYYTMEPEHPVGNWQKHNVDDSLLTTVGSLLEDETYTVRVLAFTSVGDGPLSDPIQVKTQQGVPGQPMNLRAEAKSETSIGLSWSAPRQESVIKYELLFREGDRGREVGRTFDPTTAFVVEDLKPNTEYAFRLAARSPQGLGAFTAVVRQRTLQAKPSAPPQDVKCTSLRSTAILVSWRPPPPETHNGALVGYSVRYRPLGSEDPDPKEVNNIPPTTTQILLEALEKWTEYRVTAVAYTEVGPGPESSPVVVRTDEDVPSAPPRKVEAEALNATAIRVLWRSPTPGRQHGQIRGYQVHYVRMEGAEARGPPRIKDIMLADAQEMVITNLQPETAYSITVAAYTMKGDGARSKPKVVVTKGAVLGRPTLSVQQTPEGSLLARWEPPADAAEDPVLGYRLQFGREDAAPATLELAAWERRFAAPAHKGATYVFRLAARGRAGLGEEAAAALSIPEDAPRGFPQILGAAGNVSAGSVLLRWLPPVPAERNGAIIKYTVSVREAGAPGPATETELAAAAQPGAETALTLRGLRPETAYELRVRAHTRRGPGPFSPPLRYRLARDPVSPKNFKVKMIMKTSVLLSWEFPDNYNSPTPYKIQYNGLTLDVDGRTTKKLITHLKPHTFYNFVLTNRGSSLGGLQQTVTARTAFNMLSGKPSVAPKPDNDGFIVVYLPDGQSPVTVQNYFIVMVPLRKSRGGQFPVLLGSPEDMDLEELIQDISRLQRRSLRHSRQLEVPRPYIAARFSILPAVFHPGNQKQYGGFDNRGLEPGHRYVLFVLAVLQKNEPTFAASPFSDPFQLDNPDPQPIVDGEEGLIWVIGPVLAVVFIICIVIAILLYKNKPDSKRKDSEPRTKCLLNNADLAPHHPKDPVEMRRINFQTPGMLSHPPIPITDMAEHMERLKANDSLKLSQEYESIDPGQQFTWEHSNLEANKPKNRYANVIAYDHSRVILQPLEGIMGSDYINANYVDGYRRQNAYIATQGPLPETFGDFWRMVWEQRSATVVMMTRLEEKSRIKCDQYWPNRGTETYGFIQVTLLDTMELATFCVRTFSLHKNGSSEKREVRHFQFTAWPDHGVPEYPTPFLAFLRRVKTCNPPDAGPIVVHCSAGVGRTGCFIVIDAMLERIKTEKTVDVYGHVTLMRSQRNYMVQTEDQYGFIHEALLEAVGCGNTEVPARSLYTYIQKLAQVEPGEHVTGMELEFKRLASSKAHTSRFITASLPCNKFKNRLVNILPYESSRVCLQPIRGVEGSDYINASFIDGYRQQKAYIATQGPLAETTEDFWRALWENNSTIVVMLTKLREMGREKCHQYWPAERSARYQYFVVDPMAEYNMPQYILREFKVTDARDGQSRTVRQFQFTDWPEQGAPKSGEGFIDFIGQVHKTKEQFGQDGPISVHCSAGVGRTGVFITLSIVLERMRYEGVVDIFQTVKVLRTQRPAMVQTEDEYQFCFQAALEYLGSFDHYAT
WT human PTPRS (hPTPRS) isoform 1 with a C-terminal HA tag (Q13332, residues 30-1948): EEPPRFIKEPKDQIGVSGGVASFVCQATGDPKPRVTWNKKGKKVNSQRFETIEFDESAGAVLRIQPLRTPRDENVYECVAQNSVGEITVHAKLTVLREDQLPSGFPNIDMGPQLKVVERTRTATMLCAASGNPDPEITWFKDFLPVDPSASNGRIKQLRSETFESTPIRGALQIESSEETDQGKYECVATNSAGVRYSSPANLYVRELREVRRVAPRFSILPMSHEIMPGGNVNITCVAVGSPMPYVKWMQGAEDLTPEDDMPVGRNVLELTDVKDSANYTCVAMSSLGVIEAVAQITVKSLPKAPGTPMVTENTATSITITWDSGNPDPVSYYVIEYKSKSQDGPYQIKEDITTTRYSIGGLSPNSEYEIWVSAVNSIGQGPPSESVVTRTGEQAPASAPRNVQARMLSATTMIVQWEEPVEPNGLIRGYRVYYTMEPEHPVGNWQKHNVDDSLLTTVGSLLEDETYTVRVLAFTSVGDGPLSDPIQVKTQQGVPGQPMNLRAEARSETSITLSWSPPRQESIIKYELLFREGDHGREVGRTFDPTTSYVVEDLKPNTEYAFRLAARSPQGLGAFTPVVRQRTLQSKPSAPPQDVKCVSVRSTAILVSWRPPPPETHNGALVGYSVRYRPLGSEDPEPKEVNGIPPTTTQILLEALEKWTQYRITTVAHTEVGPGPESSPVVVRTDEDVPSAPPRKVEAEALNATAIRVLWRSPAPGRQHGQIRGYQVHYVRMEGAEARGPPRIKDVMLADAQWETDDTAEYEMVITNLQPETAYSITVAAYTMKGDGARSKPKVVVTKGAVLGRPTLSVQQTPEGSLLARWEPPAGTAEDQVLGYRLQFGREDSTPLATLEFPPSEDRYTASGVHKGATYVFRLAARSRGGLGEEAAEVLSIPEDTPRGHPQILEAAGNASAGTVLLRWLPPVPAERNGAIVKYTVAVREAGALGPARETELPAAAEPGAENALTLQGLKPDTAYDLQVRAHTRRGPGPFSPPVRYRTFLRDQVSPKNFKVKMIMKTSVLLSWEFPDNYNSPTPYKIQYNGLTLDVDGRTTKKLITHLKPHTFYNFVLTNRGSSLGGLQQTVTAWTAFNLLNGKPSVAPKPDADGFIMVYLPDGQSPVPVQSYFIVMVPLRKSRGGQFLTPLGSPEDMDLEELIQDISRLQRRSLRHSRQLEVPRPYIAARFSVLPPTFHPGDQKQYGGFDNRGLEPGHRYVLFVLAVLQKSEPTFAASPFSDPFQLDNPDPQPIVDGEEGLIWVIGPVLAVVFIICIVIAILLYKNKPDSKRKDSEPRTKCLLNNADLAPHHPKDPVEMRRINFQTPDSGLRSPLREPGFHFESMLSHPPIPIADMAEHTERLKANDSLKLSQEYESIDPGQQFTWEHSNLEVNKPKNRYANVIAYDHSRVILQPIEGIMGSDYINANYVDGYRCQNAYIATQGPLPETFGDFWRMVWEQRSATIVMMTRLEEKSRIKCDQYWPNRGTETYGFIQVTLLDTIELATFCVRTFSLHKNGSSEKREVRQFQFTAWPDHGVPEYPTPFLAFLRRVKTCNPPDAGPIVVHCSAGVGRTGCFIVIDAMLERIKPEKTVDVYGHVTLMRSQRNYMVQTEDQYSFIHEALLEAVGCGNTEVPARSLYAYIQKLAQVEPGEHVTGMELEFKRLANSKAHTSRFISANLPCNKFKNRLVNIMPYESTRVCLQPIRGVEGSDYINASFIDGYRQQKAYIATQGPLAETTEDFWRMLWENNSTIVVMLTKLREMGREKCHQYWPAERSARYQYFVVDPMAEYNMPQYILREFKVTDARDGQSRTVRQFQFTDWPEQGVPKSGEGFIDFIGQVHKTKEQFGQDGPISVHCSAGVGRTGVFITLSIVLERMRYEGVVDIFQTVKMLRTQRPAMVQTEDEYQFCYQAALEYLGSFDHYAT
hPTPRS Fn9mut (1146QSPVPVQ1152 mutated to GAAVAVA) with a C-terminal HA tag (Q13332, form named): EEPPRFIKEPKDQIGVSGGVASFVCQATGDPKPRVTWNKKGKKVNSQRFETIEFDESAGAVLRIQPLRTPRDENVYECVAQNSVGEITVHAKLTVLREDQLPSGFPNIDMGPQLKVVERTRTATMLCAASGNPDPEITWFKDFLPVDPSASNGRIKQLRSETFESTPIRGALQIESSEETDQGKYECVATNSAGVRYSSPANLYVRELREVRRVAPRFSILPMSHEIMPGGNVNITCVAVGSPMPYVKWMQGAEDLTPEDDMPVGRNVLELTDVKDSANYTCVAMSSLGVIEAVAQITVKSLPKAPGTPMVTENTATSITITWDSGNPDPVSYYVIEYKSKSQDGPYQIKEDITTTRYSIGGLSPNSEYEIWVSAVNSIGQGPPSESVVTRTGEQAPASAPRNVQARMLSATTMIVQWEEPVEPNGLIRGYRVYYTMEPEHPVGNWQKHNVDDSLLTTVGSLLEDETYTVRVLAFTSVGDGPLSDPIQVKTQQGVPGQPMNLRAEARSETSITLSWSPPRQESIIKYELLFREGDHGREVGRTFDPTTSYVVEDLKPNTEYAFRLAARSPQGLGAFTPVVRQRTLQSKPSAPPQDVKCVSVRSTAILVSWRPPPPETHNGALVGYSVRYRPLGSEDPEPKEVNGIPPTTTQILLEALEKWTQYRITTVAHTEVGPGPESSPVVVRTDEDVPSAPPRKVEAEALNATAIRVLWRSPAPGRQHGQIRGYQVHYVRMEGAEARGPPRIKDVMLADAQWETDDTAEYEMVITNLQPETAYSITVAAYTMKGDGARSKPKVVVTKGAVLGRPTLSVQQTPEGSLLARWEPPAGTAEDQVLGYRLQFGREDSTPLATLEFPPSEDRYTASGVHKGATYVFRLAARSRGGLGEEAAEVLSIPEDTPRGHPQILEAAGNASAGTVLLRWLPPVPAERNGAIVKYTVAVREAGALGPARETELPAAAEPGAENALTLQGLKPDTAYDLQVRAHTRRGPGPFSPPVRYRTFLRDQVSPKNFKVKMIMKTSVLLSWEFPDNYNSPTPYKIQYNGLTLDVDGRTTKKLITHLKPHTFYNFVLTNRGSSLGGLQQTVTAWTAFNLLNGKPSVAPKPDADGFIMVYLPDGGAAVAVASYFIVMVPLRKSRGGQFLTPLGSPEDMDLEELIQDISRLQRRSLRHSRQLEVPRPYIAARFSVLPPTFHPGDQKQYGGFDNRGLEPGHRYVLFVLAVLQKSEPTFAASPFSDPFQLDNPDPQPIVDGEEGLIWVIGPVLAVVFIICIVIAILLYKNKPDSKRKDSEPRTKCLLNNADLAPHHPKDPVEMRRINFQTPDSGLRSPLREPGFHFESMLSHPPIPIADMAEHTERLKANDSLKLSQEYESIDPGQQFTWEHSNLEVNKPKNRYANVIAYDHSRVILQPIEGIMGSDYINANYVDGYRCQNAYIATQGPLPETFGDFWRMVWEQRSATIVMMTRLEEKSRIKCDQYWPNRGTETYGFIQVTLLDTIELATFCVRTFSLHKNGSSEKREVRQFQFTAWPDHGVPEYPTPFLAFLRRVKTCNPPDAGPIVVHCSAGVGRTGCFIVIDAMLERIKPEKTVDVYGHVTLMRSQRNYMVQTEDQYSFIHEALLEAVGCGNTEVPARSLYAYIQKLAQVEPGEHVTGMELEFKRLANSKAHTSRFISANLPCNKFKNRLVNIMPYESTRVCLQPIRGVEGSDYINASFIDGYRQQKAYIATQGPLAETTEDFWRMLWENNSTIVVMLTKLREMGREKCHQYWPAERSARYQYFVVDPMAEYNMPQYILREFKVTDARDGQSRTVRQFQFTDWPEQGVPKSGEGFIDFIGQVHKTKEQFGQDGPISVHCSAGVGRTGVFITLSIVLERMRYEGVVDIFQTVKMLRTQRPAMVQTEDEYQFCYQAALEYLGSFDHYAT

The target of assay [2] is WT mouse PTPRS (mPTPRS) with a C-terminal Flag tag (mouse) (UniProt B0V2N1). The description is as above.

No constants are given. Whether binding was seen depends on the method and setting. In cells and extracts the contact can be indirect. Some binding calls cover weakened binding; strength is not graded here. For part of these data: Tags and fused reporters may be left off the sequences shown.

This is an account of results in article PMC12363564, “Modulation of the PTPRS proteoglycan switch by antibodies binding to the membrane-proximal fibronectin-type III domain” (The Journal of Biological Chemistry, 2025).

In the case of “hPTPRS Fn9mut (1146QSPVPVQ1152 mutated to GAAVAVA) with a C-terminal HA tag (from UniProt Q13332 30-1948) (receptor)”, the binding entry in assay [1] is “binds”.

In the case of “WT human PTPRS (hPTPRS) isoform 1 with a C-terminal HA tag (from UniProt Q13332 30-1948) (receptor)”, the binding result in assay [2] and in assay [1] was “binds” each time.
